Laboratory results taken from PMC6706427.

By UniProt entry, the sequences of proteins in these tests, tags left out.
UniProt Q99816: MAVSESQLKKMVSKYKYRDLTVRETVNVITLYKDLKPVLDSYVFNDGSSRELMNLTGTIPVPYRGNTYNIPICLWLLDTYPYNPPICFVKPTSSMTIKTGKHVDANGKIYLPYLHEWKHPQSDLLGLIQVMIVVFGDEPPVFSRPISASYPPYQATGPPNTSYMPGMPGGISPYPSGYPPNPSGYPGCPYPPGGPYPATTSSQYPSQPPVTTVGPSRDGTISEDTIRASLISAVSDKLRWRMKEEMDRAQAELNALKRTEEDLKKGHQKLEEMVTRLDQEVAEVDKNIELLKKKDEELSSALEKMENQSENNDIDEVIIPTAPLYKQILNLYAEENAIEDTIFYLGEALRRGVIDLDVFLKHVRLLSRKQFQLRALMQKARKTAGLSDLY

Biological target: Flag-CLIC4 (dog)
Assay: co-IP; lysates of co-transfected 293T cells in RIPA buffer plus 0.5% CHAPS; anti-Flag or control antibody; Protein-G Dynabeads; 4 °C overnight; 4 washes; blots quantified with the Odyssey system, three independent repeats

binding: binds
Substance: mCherry-Tsg101 (from UniProt Q99816 1-390)

No constants are given. Whether binding was seen depends on the method and setting. In cells and extracts the contact can be indirect. A result given as binding can be weak or reduced; the word gives no strength.
